B1: recombinant fibronectin fragment CH-296 (other, human)
chain: PTDLRFTNIGPDTMRVTWAPPPSIDLTNFLVRYSPVKNEEDVAELSISPSDNAVVLTNLLPGTEYVVSVSSVYEQHESTPLRGRQKTGLDSPTGIDFSDITANSFTVHWIAPRATITGYRIRHHPEHFSGRPREDRVPHSRNSITLTNLTPGTEYVVSIVALNGREESPLLIGQQSTVSDVPRDLEVVAATPTSLLISWDAPAVTVRYYRITYGETGGNSPVQEFTVPGSKSTATISGLKPGVDYTITVYAVTGRGDSPASSKPISINYRTEIDKPSMAIPAPTDLKFTQVTPTSLSAQWTPPNVQLTGYRVRVTPKEKTGPMKEINLAPDSSSVVVSGLMVATKYEVSVYALKDTLTSRPAQGVVTTLENVSPPRRARVTDATETTITISWRTKTETITGFQVDAVPANGQTPIQRTIKPDVRSYTITGLQPGTDYKIYLYTLNDNARSSPVVIDASTAIDAPSNLRFLATTPNSLLVSWQPPRARITGYIIKYEKPGSPPREVVPRPRPGVTEATITGLEPGTEYTIYVIALKNNQKSEPLIGRKKTDELPQLVTLPHPNLHGPEILDVPST
B2: recombinant fibronectin fragment CH-271 (other, human)
chain: PTDLRFTNIGPDTMRVTWAPPPSIDLTNFLVRYSPVKNEEDVAELSISPSDNAVVLTNLLPGTEYVVSVSSVYEQHESTPLRGRQKTGLDSPTGIDFSDITANSFTVHWIAPRATITGYRIRHHPEHFSGRPREDRVPHSRNSITLTNLTPGTEYVVSIVALNGREESPLLIGQQSTVSDVPRDLEVVAATPTSLLISWDAPAVTVRYYRITYGETGGNSPVQEFTVPGSKSTATISGLKPGVDYTITVYAVTGRGDSPASSKPISINYRTEIDKPSMAIPAPTDLKFTQVTPTSLSAQWTPPNVQLTGYRVRVTPKEKTGPMKEINLAPDSSSVVVSGLMVATKYEVSVYALKDTLTSRPAQGVVTTLENVSPPRRARVTDATETTITISWRTKTETITGFQVDAVPANGQTPIQRTIKPDVRSYTITGLQPGTDYKIYLYTLNDNARSSPVVIDASTAIDAPSNLRFLATTPNSLLVSWQPPRARITGYIIKYEKPGSPPREVVPRPRPGVTEATITGLEPGTEYTIYVIALKNNQKSEPLIGRKKT
notes: CBD + HBD, no CS1

The chains behind the UniProt entries cited, without tags or fusion partners. Residues count along the entry.
UniProt P13612, 34-1032, chain 1 of 2: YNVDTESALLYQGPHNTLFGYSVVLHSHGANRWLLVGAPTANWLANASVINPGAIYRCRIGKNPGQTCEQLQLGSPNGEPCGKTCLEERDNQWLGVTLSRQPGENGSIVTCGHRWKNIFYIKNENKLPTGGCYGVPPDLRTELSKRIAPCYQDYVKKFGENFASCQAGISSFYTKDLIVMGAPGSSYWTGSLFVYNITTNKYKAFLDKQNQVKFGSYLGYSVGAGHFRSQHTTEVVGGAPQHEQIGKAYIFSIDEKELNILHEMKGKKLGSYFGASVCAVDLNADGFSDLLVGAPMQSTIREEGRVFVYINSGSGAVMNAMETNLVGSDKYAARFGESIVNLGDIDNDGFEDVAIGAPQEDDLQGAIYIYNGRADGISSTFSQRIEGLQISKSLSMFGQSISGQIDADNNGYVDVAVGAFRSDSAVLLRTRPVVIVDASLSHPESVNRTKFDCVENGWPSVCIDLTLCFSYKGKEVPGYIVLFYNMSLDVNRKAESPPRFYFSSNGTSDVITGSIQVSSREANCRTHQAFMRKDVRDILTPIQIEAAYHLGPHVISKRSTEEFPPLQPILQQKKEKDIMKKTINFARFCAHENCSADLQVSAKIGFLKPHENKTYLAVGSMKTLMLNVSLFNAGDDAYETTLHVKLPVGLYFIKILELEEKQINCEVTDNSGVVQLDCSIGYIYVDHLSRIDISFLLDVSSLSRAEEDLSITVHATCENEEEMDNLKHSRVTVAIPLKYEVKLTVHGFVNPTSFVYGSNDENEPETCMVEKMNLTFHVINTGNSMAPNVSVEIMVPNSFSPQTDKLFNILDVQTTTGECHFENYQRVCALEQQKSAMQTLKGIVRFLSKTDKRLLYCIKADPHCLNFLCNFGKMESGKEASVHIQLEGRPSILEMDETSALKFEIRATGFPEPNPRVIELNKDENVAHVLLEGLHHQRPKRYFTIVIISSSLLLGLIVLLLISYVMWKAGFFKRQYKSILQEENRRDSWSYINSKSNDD

Columns and labels:
[1] = biological target: T1, integrin VLA-4 on HL60 cells (UniProt P13612 34-1032; P05556 21-798); test: adhesion of HL60 cells (VLA-4 positive) to fragment-coated plates
T1 construct: whole, on cells; HL60 cells express VLA-4 but not VLA-5 by flow cytometry; also called CD49d

[2] = biological target: T1, integrin VLA-4 on HL60 cells; test: adhesion of HL60 cells to fragment-coated plates

binding result [1]	binding result [2]	Binder
binds		B1
	no binding (tested: 2 µg/cm^2 coating)	B2

— patent US8889419 (INDIANA UNIVERSITY RESEARCH AND TECHNOLOGY, dated 2014)
